From US20110038802A1, “METHOD OF DETERMINING ALANINE TRANSAMINASE (ALT) ACTIVITY BY 13C-MR DETECTION USING HYPERPOLARISED 13C-PYRUVATE” (priority 2008, published 2011)

Test system: alanine transaminase (ALT)
Test: 3D-13C-MR spectroscopic imaging of liver of normal and fasted rats after injection of hyperpolarised 13C-pyruvate
Type: in vivo, rat
Conditions: averaged over liver voxels, Mann-Whitney Rank-Sum test
Description: Two groups of rats were included in this study, to investigate liver metabolism both in fasted and non-fasted rats. Non-fasted rates were allowed to feed freely while fasted rats had their food removed about 24 hrs before MR-detection.
A catheter was introduced into the tail vein, and rats were then placed in MR scanner.
3 ml of the imaging medium as prepared in Example 1 was injected over 12 s via the tail vein catheter into the rat.
A home-built dual tuned ^1H/^13C RF coil was fit over the rat abdomen, localising signal from the liver. Rats were positioned in a 3 T horizontal bore GE MR scanner.
Lactate area to total carbon area and alanine area to total carbon area were calculated for each voxel and then averaged over all liver voxels to derive the test statistics average lactate to total carbon ratio and average alanine to total carbon ratio.

CC(=O)C(=O)O [^13C1-pyruvate, sodium ^13C1-pyruvate]
alanine to total carbon area, normal versus fasted groups (P<0.01): statistically significant difference
lactate to total carbon area, normal versus fasted groups (P=0.42): no statistically significant difference
